No constants are given. Whether binding was seen depends on the method and setting. In cells and extracts the contact can be indirect. Some entries that bind do so weakly or less than the wild type.

The chains behind the UniProt entries cited, without tags or fusion partners. Where a name states a change or a piece, a line headed by the entry shows the natural chain unless it says otherwise.
UniProt P51532: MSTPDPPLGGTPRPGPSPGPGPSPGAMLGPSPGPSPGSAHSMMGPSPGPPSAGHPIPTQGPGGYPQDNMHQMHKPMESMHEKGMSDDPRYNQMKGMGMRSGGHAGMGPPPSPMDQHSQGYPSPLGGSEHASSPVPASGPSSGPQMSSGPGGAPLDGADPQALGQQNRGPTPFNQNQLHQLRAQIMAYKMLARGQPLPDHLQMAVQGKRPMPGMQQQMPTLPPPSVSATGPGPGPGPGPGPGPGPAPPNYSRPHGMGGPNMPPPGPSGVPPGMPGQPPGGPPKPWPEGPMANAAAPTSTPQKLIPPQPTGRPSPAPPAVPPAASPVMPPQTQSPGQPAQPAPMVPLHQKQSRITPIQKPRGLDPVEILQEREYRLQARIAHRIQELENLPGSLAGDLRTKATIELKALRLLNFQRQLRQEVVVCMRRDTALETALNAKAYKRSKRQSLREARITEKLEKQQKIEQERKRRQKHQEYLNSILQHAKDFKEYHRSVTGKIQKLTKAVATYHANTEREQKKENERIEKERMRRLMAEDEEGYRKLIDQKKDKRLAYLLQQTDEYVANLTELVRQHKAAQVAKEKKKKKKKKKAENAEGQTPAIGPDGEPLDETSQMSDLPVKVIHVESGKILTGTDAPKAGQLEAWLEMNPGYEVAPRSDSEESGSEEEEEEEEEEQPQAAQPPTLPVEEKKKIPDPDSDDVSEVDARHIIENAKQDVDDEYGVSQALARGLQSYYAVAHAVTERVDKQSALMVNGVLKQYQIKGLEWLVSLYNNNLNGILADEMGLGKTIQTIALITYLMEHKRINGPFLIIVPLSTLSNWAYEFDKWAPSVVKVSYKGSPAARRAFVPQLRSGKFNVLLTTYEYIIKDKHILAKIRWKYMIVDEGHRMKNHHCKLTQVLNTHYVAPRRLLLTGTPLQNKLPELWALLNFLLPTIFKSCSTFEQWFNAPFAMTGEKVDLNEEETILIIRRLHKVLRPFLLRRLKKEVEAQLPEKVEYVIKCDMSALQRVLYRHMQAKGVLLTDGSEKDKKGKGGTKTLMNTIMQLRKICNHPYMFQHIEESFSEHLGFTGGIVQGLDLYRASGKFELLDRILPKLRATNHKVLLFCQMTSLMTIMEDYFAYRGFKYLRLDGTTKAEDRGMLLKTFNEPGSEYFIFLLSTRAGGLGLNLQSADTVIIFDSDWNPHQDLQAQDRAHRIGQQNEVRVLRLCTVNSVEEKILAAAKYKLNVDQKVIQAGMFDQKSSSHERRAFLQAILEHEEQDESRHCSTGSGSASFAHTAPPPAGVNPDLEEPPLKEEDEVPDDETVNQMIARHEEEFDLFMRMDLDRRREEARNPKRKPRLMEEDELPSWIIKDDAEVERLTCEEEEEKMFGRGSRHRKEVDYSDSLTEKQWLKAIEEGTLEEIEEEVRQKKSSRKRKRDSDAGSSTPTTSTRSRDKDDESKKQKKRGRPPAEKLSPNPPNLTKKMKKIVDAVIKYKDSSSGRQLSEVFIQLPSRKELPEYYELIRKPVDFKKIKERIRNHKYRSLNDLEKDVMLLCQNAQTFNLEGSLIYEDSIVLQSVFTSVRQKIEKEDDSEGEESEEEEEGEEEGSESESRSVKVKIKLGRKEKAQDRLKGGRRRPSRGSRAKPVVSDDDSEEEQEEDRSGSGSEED
UniProt Q9H8M2: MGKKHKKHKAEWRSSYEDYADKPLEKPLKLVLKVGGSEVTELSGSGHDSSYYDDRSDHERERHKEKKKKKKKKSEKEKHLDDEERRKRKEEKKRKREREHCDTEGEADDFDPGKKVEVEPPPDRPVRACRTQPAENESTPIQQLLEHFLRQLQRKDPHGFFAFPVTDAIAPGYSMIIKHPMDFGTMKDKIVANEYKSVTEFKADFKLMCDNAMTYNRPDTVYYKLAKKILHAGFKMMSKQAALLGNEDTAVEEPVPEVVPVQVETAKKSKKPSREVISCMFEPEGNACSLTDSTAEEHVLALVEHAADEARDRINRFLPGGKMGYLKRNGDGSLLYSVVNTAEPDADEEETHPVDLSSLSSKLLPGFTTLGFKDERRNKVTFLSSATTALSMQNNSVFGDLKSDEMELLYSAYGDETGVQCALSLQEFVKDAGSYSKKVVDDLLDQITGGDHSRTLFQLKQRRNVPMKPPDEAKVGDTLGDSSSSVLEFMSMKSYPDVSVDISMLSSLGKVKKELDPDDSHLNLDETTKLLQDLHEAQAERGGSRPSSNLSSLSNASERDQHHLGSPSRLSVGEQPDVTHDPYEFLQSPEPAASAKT
UniProt Q12824: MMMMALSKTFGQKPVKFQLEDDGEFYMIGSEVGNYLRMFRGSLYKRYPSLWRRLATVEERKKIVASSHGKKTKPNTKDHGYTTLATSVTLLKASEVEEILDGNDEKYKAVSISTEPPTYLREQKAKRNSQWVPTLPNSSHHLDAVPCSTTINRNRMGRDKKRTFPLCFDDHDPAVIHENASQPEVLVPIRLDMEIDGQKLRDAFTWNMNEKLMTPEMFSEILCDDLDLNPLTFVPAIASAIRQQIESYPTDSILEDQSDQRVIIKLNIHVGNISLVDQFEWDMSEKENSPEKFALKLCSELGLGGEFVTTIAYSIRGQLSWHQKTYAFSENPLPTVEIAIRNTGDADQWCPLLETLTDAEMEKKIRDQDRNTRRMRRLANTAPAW
UniProt Q969G3: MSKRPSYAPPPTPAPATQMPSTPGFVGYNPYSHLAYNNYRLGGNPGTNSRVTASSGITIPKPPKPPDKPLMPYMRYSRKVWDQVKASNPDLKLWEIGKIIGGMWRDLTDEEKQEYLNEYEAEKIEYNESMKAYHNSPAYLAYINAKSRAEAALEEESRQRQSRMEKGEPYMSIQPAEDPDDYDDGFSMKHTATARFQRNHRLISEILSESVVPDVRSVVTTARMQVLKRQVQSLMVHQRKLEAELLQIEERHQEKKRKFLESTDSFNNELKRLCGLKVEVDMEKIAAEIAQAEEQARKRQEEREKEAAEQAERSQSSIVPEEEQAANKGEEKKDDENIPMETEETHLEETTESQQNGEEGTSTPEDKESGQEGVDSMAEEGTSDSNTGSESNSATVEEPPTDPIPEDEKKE

The target in assay [1] is Flag-SMARCA4 full-length, wild-type (human) (UniProt P51532). The assay can be described thus: co-IP; lysates of HCT116 cells transfected with SMARCA4-WT or SMARCA4-R1157W plasmids; anti-SMARCA4 antibody for the immunoprecipitation, immunoblot for the subunits. Background: In western blotting, separated proteins are transferred to a membrane and probed.
Assay [2] deals with Flag-SMARCA4 full-length, R1157W mutant (human) (UniProt P51532). Described as above.

On to BRD9 (from UniProt Q9H8M2 1-597), for which the binding result in assay [1] and in assay [2] was “binds” throughout.

As to SMARCB1 (from UniProt Q12824 1-385), the binding result in assay [1] and in assay [2] was “binds” throughout.

Regarding SMARCE1 (from UniProt Q969G3 1-411), the binding result in assay [1] and in assay [2] was “binds” throughout.

The record behind these values is paper PMC10017700, “The SMARCA4^R1157W mutation facilitates chromatin remodeling and confers PRMT1/SMARCA4 inhibitors sensitivity in colorectal cancer” (NPJ Precision Oncology, 2023).
